Measurements reported in PubChem BioAssay AID743121 (NCATS, 2013).
Shown is a random part of about 26,000 reagents tested. Over the whole deposit, 167 (0.63%) are marked active. 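Calls are per gene from RSA p-values that are not deposited; an individual active-marked siRNA can sensitise only weakly.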 Entries without a mark were called inactive. The numbers tell different reagents against one gene apart. Further read-outs or replicates are left out here.

- Purpose: 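Genes whose silencing strengthens cell killing by camptothecin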 (primary screen)
- System: MDA-MB-231 cells, a human breast cancer line
- Knock-down reagent: single siRNA against human genes, 20 nM siRNA (0.8 pmol per well)
- Duration: 120 h (drug added 48 h after transfection, read 72 h later)
- Treatment: camptothecin 20 nM (about EC30) for 72 h; vehicle 0.1% DMSO in parallel plates
- Read-out: 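Cell viability by ATP luminescence (CellTiter-Glo) as % of non-targeting siRNA wells, and the log2 ratio of viability without drug over viability with camptothecin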
- Scale: log2 vehicle/camptothecin viability: higher = stronger sensitisation to camptothecin
- Active means: 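Active genes have an RSA gene-level p-value below 0.001, computed from the ratios of their separate siRNAs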

NAA15 #1: log2 vehicle/camptothecin viability = 0.498
NAA15 #2: log2 vehicle/camptothecin viability = -0.244
NAA15 #3: log2 vehicle/camptothecin viability = -0.466
NAA15 #4: log2 vehicle/camptothecin viability = -0.152
CYP2C8 #1: log2 vehicle/camptothecin viability = -0.384
CYP2C8 #2: log2 vehicle/camptothecin viability = 0.12
CYP2C8 #3: log2 vehicle/camptothecin viability = -0.0888
CYP2C8 #4: log2 vehicle/camptothecin viability = -0.0742
EFNB2 #1: log2 vehicle/camptothecin viability = 0.0287
EFNB2 #2: log2 vehicle/camptothecin viability = -0.418
EFNB2 #3: log2 vehicle/camptothecin viability = -0.0968
EFNB2 #4: log2 vehicle/camptothecin viability = 0.0103
FBH1 #1: log2 vehicle/camptothecin viability = -0.395
FBH1 #2: log2 vehicle/camptothecin viability = -0.298
FBH1 #3: log2 vehicle/camptothecin viability = -0.561
FBH1 #4: log2 vehicle/camptothecin viability = 0.0818
NEK11 #1: log2 vehicle/camptothecin viability = 0.0425
NEK11 #2: log2 vehicle/camptothecin viability = -0.407
NEK11 #3: log2 vehicle/camptothecin viability = 0.534
NEK11 #4: log2 vehicle/camptothecin viability = 0.163
PITPNM3 #1: log2 vehicle/camptothecin viability = -0.116
PITPNM3 #2: log2 vehicle/camptothecin viability = 0.563
PITPNM3 #3: log2 vehicle/camptothecin viability = 0.0787
PITPNM3 #4: log2 vehicle/camptothecin viability = -0.00893
PRDX2 #1: log2 vehicle/camptothecin viability = -0.744
PRDX2 #2: log2 vehicle/camptothecin viability = -0.52
PRDX2 #3: log2 vehicle/camptothecin viability = 0.0914
PRDX2 #4: log2 vehicle/camptothecin viability = -0.173
PRDX2 #5: log2 vehicle/camptothecin viability = -0.305
PRDX2 #6: log2 vehicle/camptothecin viability = -0.345
PRDX2 #7: log2 vehicle/camptothecin viability = 0.344
PRDX2 #8: log2 vehicle/camptothecin viability = -0.486
UBL7 #1: log2 vehicle/camptothecin viability = -0.267
UBL7 #2: log2 vehicle/camptothecin viability = -0.356
UBL7 #3: log2 vehicle/camptothecin viability = -0.238
UBL7 #4: log2 vehicle/camptothecin viability = -0.83
GREB1L #1: log2 vehicle/camptothecin viability = -0.484
GREB1L #2: log2 vehicle/camptothecin viability = 0.0976
GREB1L #3: log2 vehicle/camptothecin viability = 0.0968
GREB1L #4: log2 vehicle/camptothecin viability = -0.0715
PIAS1 #1: log2 vehicle/camptothecin viability = -0.56
PIAS1 #2: log2 vehicle/camptothecin viability = -0.168
PIAS1 #3: log2 vehicle/camptothecin viability = -0.373
PIAS1 #4: log2 vehicle/camptothecin viability = -0.271
OR8G2P #1: log2 vehicle/camptothecin viability = -0.275
OR8G2P #2: log2 vehicle/camptothecin viability = 0.237
OR8G2P #3: log2 vehicle/camptothecin viability = -0.308
OR8G2P #4: log2 vehicle/camptothecin viability = -0.133
